{"source": "patent US20130203726A1", "about": "“FtsZ INHIBITORS AS POTENTIATORS OF BETA-LACTAM ANTIBIOTICS AGAINST METHICILLIN-RESISTANT STAPHYLOCOCCUS” (priority 2010, published 2013)", "tested_on": "MRSA COL", "assay": "MRSA deep thigh infection model in neutropenic mice", "assay_type": "in vivo, Staphylococcus aureus", "conditions": "monotherapy over 24 hr, imipenem 10 mg/kg s.c. t.i.d. or PC190723 50, 100, 200 mg/kg p.o. t.i.d.", "experimental": "Female mice (20-25 g) were rendered neutropenic via intraperitoneal injection of cyclophosphamide (Mead Johnson Pharmaceuticals) four days (150 mg/kg) and one day (100 mg/kg) prior to experimental infection. Neutropenic mice were infected on Day 0 via intramuscular thigh injection of 0.1 ml containing ˜1-2×10^6 CPU Staphylococcus aureus (strain B, MRSA COL) from freshly grown culture broth. Two hours post thigh infection, mice were randomized and groups were administered increasing doses of PC190723 (50, 100, 200 mg/kg orally (p.o.), t.i.d ([…]); equivalent to 150, 300, and 600 mg/kg/24 hr) in the absence or presence of imipenem/cilastatin (10 mg/kg/50 mg/kg subcutaneously (s.c.), t.i.d. ([…]); equivalent to 30 mg/kg/24 hr and 150 mg/ kg/24 hr). Assay control groups included non-infected, vehicle-treated mice, vehicle-treated baseline infected (t=0 hr) mice, vehicle-treated 24 hr infected (t=24 hr) mice, and linezolid ((Zyvox IV solution, Bell Medical; 40 mg/kg orally (p.o.), b.i.d. ([…]) equivalent to 80 mg/kg/24 hr).\nTwenty four hours post the initiation of therapy, mice were sacrificed, thighs aseptically removed, placed in 4 ml sterile phosphate buffered saline (Fisher Scientific), and homogenized using a Polytron (Brinkmann Instruments). […] Plates were incubated at 35° C. for 48 hours and colony forming units (CFU) of bacteria remaining per thigh were determined.", "note": "At least one compound was matched to its structure with a doubt left."}
{"smiles": "C[C@@H](O)[C@H]1C(=O)N2C(C(=O)O)=C(SCCN=CN)C[C@H]12", "note": "[Imipenem, imipenem]", "values": [{"measurement": "effect on MRSA COL bacterial burden in the thighs", "value": "did not significantly alter"}]}
